From PubChem BioAssay AID1259415 (National Center for Advancing Translational Sciences (NCATS), 2018)
Out of some 410,000 compounds screened, about 18,000 (4.4%) were called active. The inconclusive results got no clear call from the source; some entries with a clear call stand among them for comparison. No stated cut-off is given here; in the data, active means activity change below about -60%; inconclusive means no clear call, values can overlap the other calls; inactive means above about -39%.

Assay: qHTS Assay for inhibitors of the human cytomegalovirus (HCMV)
Settings: HFF cells, HCMV-luciferase reporter, 72 h; at 57.5 µM; stronger effect = lower value
Procedure, shortened: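 Steps: HFFs plated, 16 h 37C; compounds added; HCMV-luciferase added to MOI 1 PFU/cell; 72 h 37C; OneGlo reagent, 5 min room temperature; luminescence read, normalized to controls.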
On the % scale 0 is the no-effect control and ±100 the full control effect.

SMILES	activity change, negative = inhibition
Cc1ccc(SCCc2cc[n+](CC(=O)c3ccccc3)cc2)cc1	inactive: 25.2%
COc1ccc(CN2CCN(Cc3ccccc3F)CC2)cc1	inconclusive: -49.5%
O=C(COC(=O)C1CC(=O)N(Cc2ccccc2)C1)c1ccc(Br)cc1 (centres undefined)	inconclusive: -46.3%
CCc1nc2ccc(C(=O)N(C)CCCN(C)C)cn2c1N(C=O)CCC(C)C	inconclusive: -43.2%
Cc1cccc(NC(=O)C(C)Sc2ncnc3sccc23)c1 (centres undefined)	inconclusive: -55.3%
O=S(=O)(c1ccc(Cl)c2ccccc12)N1CCCC1	inconclusive: -44.9%
CCCn1c(CN2CCN(C(=O)OCC)CC2)nc2cc(NC(C)=O)ccc21	inconclusive: -41.1%
COc1ccc(-n2c(O)c(/C=N/NS(=O)(=O)c3ccc(C)cc3)c3ccccc3c2=O)cc1OC	inconclusive: -43.6%
CCOC(=O)c1c(NC(=O)COc2cccc3c2CCN(C)C3=O)sc2c1CCC2	active: -62.6%
Cc1cc(Cl)ccc1C(=O)C1CCCN(C(=O)c2cscn2)C1 (centres undefined)	inconclusive: -40.6%
O=C(/C=C/c1cccc(Cl)c1)Nn1c(-c2cccs2)nc2ccccc2c1=O	inconclusive: -40.4%
CCN(CC)C(=O)c1ccc2sc([C@@H]3O[C@H](CO)[C@H](O)[C@H](O)[C@H]3O)nc2c1	inconclusive: -42.8%
O=C(NNc1nc2c(F)cccc2s1)c1ccccc1	inactive: -38.7%
COc1ccc(C2=Nc3nc(-c4ccccc4)cn3C(c3ccc(OC)cc3)C2)cc1 (centres undefined)	inconclusive: -50.3%
O=C(CN(C1CCCCC1)S(=O)(=O)c1ccc(Cl)cc1)NCc1ccncc1	inconclusive: -49.1%
O=C(COc1ccc(Cl)cc1Cl)NN=C1CCCCC1	inconclusive: -58%
O=C(Nc1ccc(F)c(Cl)c1)Nc1csc2ccccc12	active: -98.4%
Cc1cc(N2CCCCC2)ccc1[N+](=O)[O-]	inconclusive: -42.8%
Cc1ccc(Cl)cc1NC(=O)C(NS(=O)(=O)c1cccs1)c1ccccc1 (centres undefined)	active: -70.2%
COc1ccc(N2CCN(C(=O)CSc3ccc([N+](=O)[O-])cc3)CC2)cc1	active: -65%
COc1cc(NC(=O)c2ccco2)c(C(=O)OCC(=O)c2c[nH]c3ccccc23)cc1OC	inconclusive: -47.7%
COc1ccc(C2=NN(CC(=O)NCCc3ccccc3)C(=O)CC2)cc1	inactive: 74.9%

Structures from the list above with an aryl thioether with sulfur outside any ring (three):
SMILES	activity change, negative = inhibition
Cc1ccc(SCCc2cc[n+](CC(=O)c3ccccc3)cc2)cc1	inactive: 25.2%
Cc1cccc(NC(=O)C(C)Sc2ncnc3sccc23)c1 (centres undefined)	inconclusive: -55.3%
COc1ccc(N2CCN(C(=O)CSc3ccc([N+](=O)[O-])cc3)CC2)cc1	active: -65%

(further entries)

SMILES	activity change, negative = inhibition
O=C1Nc2cc(C(=O)N3CCN(c4ccccn4)CC3)ccc2S/C1=C\c1ccccc1	inconclusive: -44.5%
O=C(NCc1cccc(C(F)(F)F)c1)c1cc(Cl)ccc1Cl	inconclusive: -49.6%
CCc1ccc(NC(=O)C2CCN(S(=O)(=O)c3c(C)noc3C)CC2)cc1	inconclusive: -48.1%
CC(=O)c1cc(-c2ccccc2)n(CCC(=O)NC2CCCCC2)c1C	inconclusive: 0%
CC12CN3CC(c4ccccc4)(CN(C1)C3c1ccc(Cl)cc1)C2=O (centres undefined)	inactive: -6.4%
CCOc1ccccc1N(CC(=O)NC1CCCC1)S(=O)(=O)c1ccc(C)cc1	inconclusive: -47.4%
Cc1cccc(N(CC(=O)N(C)Cc2ccccc2)S(=O)(=O)c2ccccc2)c1C	active: -63.5%
CCC(Oc1ccccc1)C(=O)Nc1ccc(S(=O)(=O)N2CCOCC2)cc1 (centres undefined)	inconclusive: -48.4%
Cc1ccc(S(=O)(=O)Nc2cc(C(=O)N3CCC4(CC3)OCCO4)ccc2N2CCCCC2)cc1	inconclusive: -54.2%
Cc1cccc(OCC(=O)N(Cc2ccc(N(C)C)cc2)Cc2ccco2)c1C	inconclusive: -49.9%
CC(C)Cn1c(C(C)C)nc([N+](=O)[O-])c1S(=O)(=O)c1ccc(F)cc1	active: -72.1%
Cn1ccnc1SCC(=O)Nc1cccc2ccccc12	inconclusive: -50.9%
O=C(Cc1ccc(Cl)cc1)N/N=C/c1ccc(O)c(O)c1	inactive: -34.2%
COCCn1c(SCC(=O)Nc2nc(C)c(Cl)cc2Cl)nc2ccccc21	inconclusive: -46.8%
CC(C)(C)c1ccc(C(=O)NNC(=S)NC(=O)c2cccnc2)cc1	inconclusive: -45.8%
O=C(Cc1ncn[nH]1)NCCc1ccccc1	inactive: -5.22%
Cc1cc(C)c2sc(N(CCCN(C)C)C(=O)c3ccc(S(=O)(=O)N4CCCc5ccccc54)cc3)nc2c1	active: -60.6%
C=CCNc1nc2c(c(=O)n(C)c(=O)n2C)n1CCCCCC	active: -96.5%
CC(C)Oc1ccc(CN2CCC2(C)C(=O)Nc2ccc3c(c2)OCO3)cc1 (centres undefined)	inconclusive: -57.3%
Cn1ncc(Oc2ccc([N+](=O)[O-])cc2)c(Cl)c1=O	active: -90.8%
CCOc1ccc(NC(=O)CCC(=O)N2CCSc3ccccc32)cc1	inconclusive: -44.3%
CC[n+]1c(C=C2C=C(C)OC(C)=C2)sc2ccccc21	active: -97.9%
